# Data as given in the supplement of paper PMC12823440, “Inhibitors supercharge kinase turnover through native proteolytic circuits” (Nature, 2025).
# The chains behind the UniProt entries cited, without tags or fusion partners. Where a name states a change or a piece, a line headed by the entry shows the natural chain unless it says otherwise.
# UniProt O15530: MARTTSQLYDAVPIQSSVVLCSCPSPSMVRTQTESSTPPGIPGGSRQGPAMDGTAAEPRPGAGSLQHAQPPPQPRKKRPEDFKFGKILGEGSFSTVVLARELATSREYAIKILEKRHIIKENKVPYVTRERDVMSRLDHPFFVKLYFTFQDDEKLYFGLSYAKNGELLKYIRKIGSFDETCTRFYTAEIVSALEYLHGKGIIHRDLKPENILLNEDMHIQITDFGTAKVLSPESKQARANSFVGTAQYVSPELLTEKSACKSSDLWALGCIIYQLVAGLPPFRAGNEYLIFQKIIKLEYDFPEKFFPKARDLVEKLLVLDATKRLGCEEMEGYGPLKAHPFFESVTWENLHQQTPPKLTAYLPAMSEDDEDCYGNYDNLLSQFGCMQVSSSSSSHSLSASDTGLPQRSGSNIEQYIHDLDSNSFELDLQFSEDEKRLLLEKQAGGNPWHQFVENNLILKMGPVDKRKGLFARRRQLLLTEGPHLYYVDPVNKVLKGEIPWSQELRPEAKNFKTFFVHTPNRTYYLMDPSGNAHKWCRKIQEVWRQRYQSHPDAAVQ
# UniProt P42356, whole entry, looked up: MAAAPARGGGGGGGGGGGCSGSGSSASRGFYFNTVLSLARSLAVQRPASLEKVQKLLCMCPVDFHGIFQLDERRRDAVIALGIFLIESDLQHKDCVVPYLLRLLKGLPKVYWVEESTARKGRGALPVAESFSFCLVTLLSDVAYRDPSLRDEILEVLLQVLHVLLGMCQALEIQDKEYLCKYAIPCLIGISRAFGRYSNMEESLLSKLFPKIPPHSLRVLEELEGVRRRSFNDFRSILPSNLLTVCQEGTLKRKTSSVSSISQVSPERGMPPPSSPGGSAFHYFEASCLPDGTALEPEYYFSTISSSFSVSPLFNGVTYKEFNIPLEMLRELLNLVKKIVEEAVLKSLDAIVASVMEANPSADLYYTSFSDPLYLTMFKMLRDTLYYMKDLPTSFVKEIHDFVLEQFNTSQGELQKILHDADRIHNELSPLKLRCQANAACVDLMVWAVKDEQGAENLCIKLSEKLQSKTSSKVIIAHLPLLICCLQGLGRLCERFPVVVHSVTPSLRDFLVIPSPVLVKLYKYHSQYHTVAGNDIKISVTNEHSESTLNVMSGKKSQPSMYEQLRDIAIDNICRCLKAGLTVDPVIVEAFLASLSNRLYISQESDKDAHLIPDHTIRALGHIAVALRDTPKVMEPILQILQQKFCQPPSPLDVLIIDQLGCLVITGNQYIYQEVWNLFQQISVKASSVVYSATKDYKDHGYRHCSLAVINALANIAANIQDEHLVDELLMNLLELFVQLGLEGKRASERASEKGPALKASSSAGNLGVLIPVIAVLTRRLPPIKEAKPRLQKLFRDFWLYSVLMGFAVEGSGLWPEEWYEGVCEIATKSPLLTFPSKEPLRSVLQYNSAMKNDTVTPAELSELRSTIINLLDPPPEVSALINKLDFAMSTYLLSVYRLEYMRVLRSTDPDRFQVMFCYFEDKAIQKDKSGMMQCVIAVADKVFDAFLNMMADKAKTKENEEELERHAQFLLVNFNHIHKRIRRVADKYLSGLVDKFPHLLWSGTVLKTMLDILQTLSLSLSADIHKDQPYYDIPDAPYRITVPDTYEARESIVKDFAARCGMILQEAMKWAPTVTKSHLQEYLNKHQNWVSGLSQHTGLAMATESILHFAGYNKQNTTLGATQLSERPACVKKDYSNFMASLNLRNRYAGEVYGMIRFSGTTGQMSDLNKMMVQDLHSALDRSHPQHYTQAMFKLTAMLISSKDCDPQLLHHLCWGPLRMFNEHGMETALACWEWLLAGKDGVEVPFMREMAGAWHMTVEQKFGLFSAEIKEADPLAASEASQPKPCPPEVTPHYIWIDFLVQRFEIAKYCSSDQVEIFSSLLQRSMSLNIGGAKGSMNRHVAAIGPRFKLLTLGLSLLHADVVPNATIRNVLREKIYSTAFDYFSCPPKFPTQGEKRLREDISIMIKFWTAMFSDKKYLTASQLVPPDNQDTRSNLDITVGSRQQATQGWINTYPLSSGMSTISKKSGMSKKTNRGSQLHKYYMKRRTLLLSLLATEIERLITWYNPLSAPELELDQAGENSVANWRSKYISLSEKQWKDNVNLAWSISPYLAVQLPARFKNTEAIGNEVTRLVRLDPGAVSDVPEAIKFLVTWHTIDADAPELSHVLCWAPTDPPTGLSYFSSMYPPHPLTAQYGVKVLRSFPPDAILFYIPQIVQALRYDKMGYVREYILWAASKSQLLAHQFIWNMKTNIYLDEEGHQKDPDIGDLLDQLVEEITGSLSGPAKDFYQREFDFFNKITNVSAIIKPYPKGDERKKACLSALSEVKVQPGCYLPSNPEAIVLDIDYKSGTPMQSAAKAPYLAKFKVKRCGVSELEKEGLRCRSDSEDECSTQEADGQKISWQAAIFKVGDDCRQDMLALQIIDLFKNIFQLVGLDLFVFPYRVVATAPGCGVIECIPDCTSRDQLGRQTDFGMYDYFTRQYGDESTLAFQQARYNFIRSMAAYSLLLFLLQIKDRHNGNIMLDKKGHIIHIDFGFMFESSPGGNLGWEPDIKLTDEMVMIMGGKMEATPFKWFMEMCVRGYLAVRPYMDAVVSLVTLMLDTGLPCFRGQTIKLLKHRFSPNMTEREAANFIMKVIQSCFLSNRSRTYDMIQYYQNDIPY
# UniProt Q9UBF8: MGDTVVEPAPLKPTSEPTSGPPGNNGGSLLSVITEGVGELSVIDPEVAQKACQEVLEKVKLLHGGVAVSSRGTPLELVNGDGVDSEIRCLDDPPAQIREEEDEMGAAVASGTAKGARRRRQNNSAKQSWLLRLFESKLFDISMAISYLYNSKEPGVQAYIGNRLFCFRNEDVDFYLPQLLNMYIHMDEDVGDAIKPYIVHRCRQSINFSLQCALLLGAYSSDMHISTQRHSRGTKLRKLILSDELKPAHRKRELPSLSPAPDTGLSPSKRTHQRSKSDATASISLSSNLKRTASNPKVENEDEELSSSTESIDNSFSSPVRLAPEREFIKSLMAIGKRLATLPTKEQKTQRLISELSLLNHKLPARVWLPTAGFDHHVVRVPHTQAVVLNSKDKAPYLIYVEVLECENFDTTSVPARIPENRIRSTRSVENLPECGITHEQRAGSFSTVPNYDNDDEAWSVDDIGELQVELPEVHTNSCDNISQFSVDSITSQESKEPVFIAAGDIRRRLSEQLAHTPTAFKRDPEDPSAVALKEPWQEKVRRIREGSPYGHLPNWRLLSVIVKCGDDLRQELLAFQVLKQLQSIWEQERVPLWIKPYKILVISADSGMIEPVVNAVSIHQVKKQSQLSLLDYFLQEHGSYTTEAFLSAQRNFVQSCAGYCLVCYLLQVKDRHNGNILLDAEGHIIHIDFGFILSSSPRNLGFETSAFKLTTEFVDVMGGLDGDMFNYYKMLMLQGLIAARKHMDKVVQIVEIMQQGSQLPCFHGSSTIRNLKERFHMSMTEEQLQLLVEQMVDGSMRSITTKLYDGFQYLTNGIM
# UniProt Q13131: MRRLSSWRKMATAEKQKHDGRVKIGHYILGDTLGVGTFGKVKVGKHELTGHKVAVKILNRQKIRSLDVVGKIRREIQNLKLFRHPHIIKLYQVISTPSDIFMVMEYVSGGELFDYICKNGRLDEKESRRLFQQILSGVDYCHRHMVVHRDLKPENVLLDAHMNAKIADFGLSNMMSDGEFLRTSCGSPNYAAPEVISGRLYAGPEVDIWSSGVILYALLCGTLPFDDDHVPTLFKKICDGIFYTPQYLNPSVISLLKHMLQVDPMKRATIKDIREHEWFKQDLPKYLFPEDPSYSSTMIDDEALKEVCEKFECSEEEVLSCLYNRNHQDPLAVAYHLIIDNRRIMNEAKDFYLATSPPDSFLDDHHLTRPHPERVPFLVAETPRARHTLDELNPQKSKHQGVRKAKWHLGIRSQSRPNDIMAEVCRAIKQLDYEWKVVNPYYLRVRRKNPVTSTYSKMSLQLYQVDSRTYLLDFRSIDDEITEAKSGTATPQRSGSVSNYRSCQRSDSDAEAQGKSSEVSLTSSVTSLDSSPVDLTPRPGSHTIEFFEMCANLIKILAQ
# UniProt Q13546: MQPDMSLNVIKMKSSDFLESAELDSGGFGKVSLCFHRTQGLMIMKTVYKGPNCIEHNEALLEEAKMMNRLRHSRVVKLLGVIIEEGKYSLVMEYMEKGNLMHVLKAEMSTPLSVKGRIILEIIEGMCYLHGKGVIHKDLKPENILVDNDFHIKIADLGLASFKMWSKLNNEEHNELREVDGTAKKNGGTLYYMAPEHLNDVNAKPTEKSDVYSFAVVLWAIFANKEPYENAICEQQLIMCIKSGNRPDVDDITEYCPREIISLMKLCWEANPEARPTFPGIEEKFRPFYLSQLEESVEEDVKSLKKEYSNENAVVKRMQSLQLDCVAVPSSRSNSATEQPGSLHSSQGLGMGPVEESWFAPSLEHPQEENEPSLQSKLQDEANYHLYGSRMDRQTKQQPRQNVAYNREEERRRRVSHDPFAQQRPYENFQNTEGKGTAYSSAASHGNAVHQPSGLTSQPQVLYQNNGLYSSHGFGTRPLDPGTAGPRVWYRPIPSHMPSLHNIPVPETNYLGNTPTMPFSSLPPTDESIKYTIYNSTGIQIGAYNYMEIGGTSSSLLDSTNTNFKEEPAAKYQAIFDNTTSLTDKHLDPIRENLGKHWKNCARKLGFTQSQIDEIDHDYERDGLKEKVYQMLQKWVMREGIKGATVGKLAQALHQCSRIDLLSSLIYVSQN
# UniProt Q9NYA1, whole entry: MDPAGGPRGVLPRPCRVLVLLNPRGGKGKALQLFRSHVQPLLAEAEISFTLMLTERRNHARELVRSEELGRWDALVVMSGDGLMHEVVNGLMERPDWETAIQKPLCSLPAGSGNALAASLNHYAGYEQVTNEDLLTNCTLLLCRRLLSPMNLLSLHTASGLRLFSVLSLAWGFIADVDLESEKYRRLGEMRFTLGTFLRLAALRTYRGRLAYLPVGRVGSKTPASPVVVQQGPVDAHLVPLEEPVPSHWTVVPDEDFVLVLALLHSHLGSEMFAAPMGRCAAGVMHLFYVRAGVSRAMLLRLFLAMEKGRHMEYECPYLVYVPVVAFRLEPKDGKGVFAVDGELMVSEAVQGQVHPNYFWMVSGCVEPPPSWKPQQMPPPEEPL
# UniProt Q9Y6E0: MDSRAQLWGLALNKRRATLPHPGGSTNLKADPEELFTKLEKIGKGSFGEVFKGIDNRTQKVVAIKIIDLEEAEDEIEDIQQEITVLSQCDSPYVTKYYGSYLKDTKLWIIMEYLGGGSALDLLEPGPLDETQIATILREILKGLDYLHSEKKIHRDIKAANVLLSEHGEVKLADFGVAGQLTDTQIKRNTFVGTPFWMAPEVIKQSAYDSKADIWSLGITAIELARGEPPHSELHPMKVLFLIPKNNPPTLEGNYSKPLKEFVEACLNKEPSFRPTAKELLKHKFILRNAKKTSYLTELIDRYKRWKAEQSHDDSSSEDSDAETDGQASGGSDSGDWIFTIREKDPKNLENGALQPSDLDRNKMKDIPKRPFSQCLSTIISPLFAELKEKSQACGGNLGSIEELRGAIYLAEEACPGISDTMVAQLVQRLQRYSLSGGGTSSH
# This is one part of the list. Hit calls seldom repeat between salt and free forms of one compound.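 In K562 cells expressing nanoluciferase-fused kinases, luminescence was recorded at 4 h intervals between 2 and 18 h, normalized as percent of control with DMSO at 100% and a positive control at 0%. A significant (2 sigma) signal drop marks a time point as decreased. The authors' rule for a hit is not shown and takes in more than the number of time points.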
# Experiments:
# Test in all cases: kinase-Nluc reporter destabilization hit call (1 = scored as downregulated) (binary); higher = compound decreases kinase abundance
# Settings in all cases: K562; 2-18 h
# PDPK1 = PDPK1 (UniProt O15530)
# PIK4CA = PIK4CA (UniProt P42356)
# PIK4CB = PIK4CB (UniProt Q9UBF8)
# PLK1 = PLK1 (UniProt P53350)
# PRKAA1 = PRKAA1 (UniProt Q13131)
# PRKCA = PRKCA (UniProt P17252)
# PTK2 = PTK2 (UniProt Q05397)
# PTK2B = PTK2B (UniProt Q14289)
# RAF1 = RAF1 (UniProt P04049)
# [1] = target: RAF1_S257L (clone: RAF1_mut) (UniProt P04049)
# RET = RET (UniProt P07949)
# [2] = target: RET_M918T (clone: RET_mut) (UniProt P07949)
# RIOK1 = RIOK1 (UniProt Q9BRS2)
# RIPK1 = RIPK1 (UniProt Q13546)
# RIPK2 = RIPK2 (UniProt O43353)
# ROR2 = ROR2 (UniProt Q01974)
# RPS6KA1 = RPS6KA1 (UniProt Q15418)
# SPHK1 = SPHK1 (UniProt Q9NYA1)
# SRC = SRC (UniProt P12931)
# STK24 = STK24 (UniProt Q9Y6E0)
SMILES,kinase-Nluc reporter destabilization hit call (PDPK1),kinase-Nluc reporter destabilization hit call (PIK4CA),kinase-Nluc reporter destabilization hit call (PIK4CB),kinase-Nluc reporter destabilization hit call (PLK1),kinase-Nluc reporter destabilization hit call (PRKAA1),kinase-Nluc reporter destabilization hit call (PRKCA),kinase-Nluc reporter destabilization hit call (PTK2),kinase-Nluc reporter destabilization hit call (PTK2B),kinase-Nluc reporter destabilization hit call (RAF1),kinase-Nluc reporter destabilization hit call [1],kinase-Nluc reporter destabilization hit call (RET),kinase-Nluc reporter destabilization hit call [2],kinase-Nluc reporter destabilization hit call (RIOK1),kinase-Nluc reporter destabilization hit call (RIPK1),kinase-Nluc reporter destabilization hit call (RIPK2),kinase-Nluc reporter destabilization hit call (ROR2),kinase-Nluc reporter destabilization hit call (RPS6KA1),kinase-Nluc reporter destabilization hit call (SPHK1),kinase-Nluc reporter destabilization hit call (SRC),kinase-Nluc reporter destabilization hit call (STK24)
Nc1nc2c(ncn2COCCO)c(=O)[nH]1 [Acyclovir] (10 µM),inactive: 0,inactive: 0,inactive: 0,inactive: 0,inactive: 0,inactive: 0,inactive: 0,inactive: 0,inactive: 0,inactive: 0,inactive: 0,inactive: 0,inactive: 0,inactive: 0,inactive: 0,inactive: 0,inactive: 0,inactive: 0,inactive: 0,inactive: 0
CCOc1cc(C(=O)N2CCC(N3CCN(C)CC3)CC2)ccc1Nc1ncc2c(n1)N(S(C)(=O)=O)c1ccccc1C(=O)N2C (10 µM),inactive: 0,inactive: 0,inactive: 0,inactive: 0,inactive: 0,inactive: 0,inactive: 0,inactive: 0,inactive: 0,inactive: 0,inactive: 0,inactive: 0,inactive: 0,inactive: 0,inactive: 0,inactive: 0,inactive: 0,inactive: 0,inactive: 0,inactive: 0
Cn1c(=O)c(Oc2ccc(F)cc2F)cc2cnc(NC(CCO)CCO)nc21 [Pamapimod] (10 µM),inactive: 0,inactive: 0,inactive: 0,inactive: 0,inactive: 0,inactive: 0,inactive: 0,inactive: 0,inactive: 0,inactive: 0,inactive: 0,inactive: 0,inactive: 0,inactive: 0,inactive: 0,inactive: 0,inactive: 0,inactive: 0,inactive: 0,inactive: 0
CCOC(=O)C1=C[C@]2(CC)CCCN3CCc4c(n1c1ccccc41)[C@@H]32 [Vinpocetine] (10 µM),inactive: 0,inactive: 0,inactive: 0,inactive: 0,inactive: 0,inactive: 0,inactive: 0,inactive: 0,inactive: 0,inactive: 0,inactive: 0,inactive: 0,inactive: 0,inactive: 0,inactive: 0,inactive: 0,inactive: 0,inactive: 0,inactive: 0,inactive: 0
CC(=O)NCC(=O)N[C@@H](C)C(=O)N[C@@H](CCC(N)=O)C(=O)N[C@@H](Cc1ccccc1)C(=O)N[C@@H](CO)C(=O)N[C@@H](CCCCN)C(=O)N[C@H](C(=O)N[C@@H](C)C(=O)N[C@@H](C)C(=O)N[C@@H](CCCCN)C(=O)O)[C@@H](C)O (10 µM),inactive: 0,inactive: 0,inactive: 0,inactive: 0,inactive: 0,inactive: 0,inactive: 0,inactive: 0,inactive: 0,inactive: 0,inactive: 0,inactive: 0,inactive: 0,inactive: 0,inactive: 0,inactive: 0,inactive: 0,inactive: 0,inactive: 0,inactive: 0
C[C@@H]1CC[C@]2(C(=O)O)CC[C@]3(C)C(=CC[C@@H]4[C@@]5(C)CC[C@H](O)[C@@](C)(CO)[C@@H]5CC[C@]43C)[C@@H]2[C@]1(C)O [Rotundic acid] (10 µM),inactive: 0,inactive: 0,inactive: 0,inactive: 0,inactive: 0,inactive: 0,inactive: 0,inactive: 0,inactive: 0,inactive: 0,inactive: 0,inactive: 0,inactive: 0,inactive: 0,inactive: 0,inactive: 0,inactive: 0,inactive: 0,inactive: 0,inactive: 0
Cc1cc(Nc2ncc(Cl)c(Nc3ccccc3S(=O)(=O)C(C)C)n2)c(OC(C)C)cc1C1CCN(CC(=O)NCCNc2cccc3c2C(=O)N(C2CCC(=O)NC2=O)C3=O)CC1 (stereo not given) (10 µM),inactive: 0,inactive: 0,inactive: 0,inactive: 0,inactive: 0,inactive: 0,active: 1,inactive: 0,inactive: 0,inactive: 0,inactive: 0,inactive: 0,inactive: 0,inactive: 0,inactive: 0,inactive: 0,inactive: 0,inactive: 0,inactive: 0,inactive: 0
Cc1ccc(Nc2c(C(N)=O)cnc3cc(-c4ccncc4)ccc23)cc1C [cFMS Receptor Inhibitor II] (10 µM),inactive: 0,inactive: 0,inactive: 0,inactive: 0,inactive: 0,inactive: 0,inactive: 0,inactive: 0,inactive: 0,inactive: 0,inactive: 0,inactive: 0,inactive: 0,inactive: 0,inactive: 0,inactive: 0,inactive: 0,inactive: 0,inactive: 0,inactive: 0
C=CC(=O)Nc1cccc(Nc2nc(Nc3ccc(Oc4ccnc(C(=O)NC)c4)cc3)ncc2F)c1 (2.5 µM),inactive: 0,inactive: 0,inactive: 0,inactive: 0,inactive: 0,inactive: 0,inactive: 0,inactive: 0,inactive: 0,inactive: 0,inactive: 0,inactive: 0,inactive: 0,inactive: 0,inactive: 0,inactive: 0,inactive: 0,inactive: 0,inactive: 0,inactive: 0
Cc1cccc(-c2[nH]c(C(C)(C)C)nc2-c2ccc3c(c2)OCO3)n1 (2.5 µM),inactive: 0,inactive: 0,inactive: 0,inactive: 0,inactive: 0,inactive: 0,inactive: 0,inactive: 0,inactive: 0,inactive: 0,inactive: 0,inactive: 0,inactive: 0,inactive: 0,inactive: 0,inactive: 0,inactive: 0,inactive: 0,inactive: 0,inactive: 0
C[C@@H]1O[C@@H](O[C@H]2[C@H](OC(=O)[C@]34CCC(C)(C)C[C@H]3C3=CC[C@@H]5[C@@]6(C)C[C@H](O)[C@H](O[C@@H]7O[C@H](CO)[C@@H](O)[C@H](O)[C@H]7O)C(CO)(CO)[C@@H]6CC[C@@]5(C)[C@]3(C)C[C@H]4O)OC[C@H](O)[C@@H]2O)[C@H](O)[C@H](O)[C@H]1O[C@@H]1OC[C@@H](O)[C@H](O[C@@H]2OC[C@](O)(CO)[C@H]2O)[C@H]1O [Platycodin D] (10 µM),inactive: 0,inactive: 0,inactive: 0,inactive: 0,inactive: 0,inactive: 0,inactive: 0,inactive: 0,inactive: 0,inactive: 0,inactive: 0,inactive: 0,inactive: 0,inactive: 0,inactive: 0,inactive: 0,inactive: 0,inactive: 0,inactive: 0,inactive: 0
CC(C)n1nc(C#Cc2ccccc2)c2c(N)ncnc21 (10 µM),inactive: 0,inactive: 0,inactive: 0,inactive: 0,inactive: 0,inactive: 0,inactive: 0,inactive: 0,inactive: 0,inactive: 0,inactive: 0,inactive: 0,inactive: 0,inactive: 0,inactive: 0,inactive: 0,inactive: 0,inactive: 0,inactive: 0,inactive: 0
O=C(CCc1ccc2n1[B-](F)(F)[N+]1=C(c3ccc[nH]3)C=CC1=C2)ON1C(=O)CCC1=O [Py-BODIPY-NHS ester] (2.5 µM),inactive: 0,inactive: 0,inactive: 0,inactive: 0,inactive: 0,inactive: 0,inactive: 0,inactive: 0,inactive: 0,inactive: 0,inactive: 0,inactive: 0,inactive: 0,inactive: 0,inactive: 0,inactive: 0,inactive: 0,inactive: 0,inactive: 0,inactive: 0
COc1ccc(C(=O)c2cn(C(C)C)c3ncnc(N)c23)cc1NC(=O)Nc1ccc(Cl)cc1Cl (10 µM),inactive: 0,inactive: 0,inactive: 0,inactive: 0,inactive: 0,inactive: 0,inactive: 0,inactive: 0,inactive: 0,inactive: 0,inactive: 0,inactive: 0,inactive: 0,inactive: 0,inactive: 0,inactive: 0,inactive: 0,inactive: 0,inactive: 0,inactive: 0
NC(=O)c1cccc2c(N[C@H](CN3CCC3)c3ccc(Cl)c(C(F)(F)F)c3)ncnc12 (10 µM),inactive: 0,inactive: 0,inactive: 0,inactive: 0,inactive: 0,inactive: 0,inactive: 0,inactive: 0,inactive: 0,inactive: 0,inactive: 0,inactive: 0,inactive: 0,inactive: 0,inactive: 0,inactive: 0,inactive: 0,inactive: 0,inactive: 0,inactive: 0
N#Cc1c[nH]c2ccc(-c3ccc(-c4c(O)cccc4O)cc3)cc12 (10 µM),inactive: 0,inactive: 0,inactive: 0,inactive: 0,inactive: 0,inactive: 0,inactive: 0,inactive: 0,inactive: 0,inactive: 0,inactive: 0,inactive: 0,inactive: 0,inactive: 0,inactive: 0,inactive: 0,inactive: 0,inactive: 0,inactive: 0,inactive: 0

# Some entries already given, showing only kinase-Nluc reporter destabilization hit call (ROR2), kinase-Nluc reporter destabilization hit call (RET) and kinase-Nluc reporter destabilization hit call (PTK2).
SMILES | kinase-Nluc reporter destabilization hit call (ROR2) | kinase-Nluc reporter destabilization hit call (RET) | kinase-Nluc reporter destabilization hit call (PTK2)
CC(=O)NCC(=O)N[C@@H](C)C(=O)N[C@@H](CCC(N)=O)C(=O)N[C@@H](Cc1ccccc1)C(=O)N[C@@H](CO)C(=O)N[C@@H](CCCCN)C(=O)N[C@H](C(=O)N[C@@H](C)C(=O)N[C@@H](C)C(=O)N[C@@H](CCCCN)C(=O)O)[C@@H](C)O (10 µM) | inactive: 0 | inactive: 0 | inactive: 0
COc1ccc(C(=O)c2cn(C(C)C)c3ncnc(N)c23)cc1NC(=O)Nc1ccc(Cl)cc1Cl (10 µM) | inactive: 0 | inactive: 0 | inactive: 0
